Assay results as given in article PMC7791037.
Numbering of substitutions follows the chain as printed. No constants are given. Whether binding was seen depends on the method and setting. In cells and extracts the contact can be indirect. Some entries that bind do so weakly or less than the wild type. Tags and fused reporters may be left off the sequences shown.

Amino acid sequences for entries named in this document (tags omitted).
UniProt P78560: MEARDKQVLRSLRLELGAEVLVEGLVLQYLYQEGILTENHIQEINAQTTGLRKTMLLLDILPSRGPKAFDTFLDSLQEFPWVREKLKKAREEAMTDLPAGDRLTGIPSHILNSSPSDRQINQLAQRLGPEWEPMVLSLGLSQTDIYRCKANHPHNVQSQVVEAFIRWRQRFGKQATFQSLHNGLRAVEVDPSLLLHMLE

Columns and labels:
Assay in all cases: co-IP; FLAG-tagged PIDD1 variants overexpressed in HEK293T cells, lysed after 24 h, precipitated with FLAG-M2 agarose beads; western blot for FLAG-PIDD1 and endogenous CRADD in IP sample and flow through
[1] = molecular target: T1, C-terminally FLAG-tagged PIDD1 Q863* (human) (UniProt Q9HB75)
T1 sequence: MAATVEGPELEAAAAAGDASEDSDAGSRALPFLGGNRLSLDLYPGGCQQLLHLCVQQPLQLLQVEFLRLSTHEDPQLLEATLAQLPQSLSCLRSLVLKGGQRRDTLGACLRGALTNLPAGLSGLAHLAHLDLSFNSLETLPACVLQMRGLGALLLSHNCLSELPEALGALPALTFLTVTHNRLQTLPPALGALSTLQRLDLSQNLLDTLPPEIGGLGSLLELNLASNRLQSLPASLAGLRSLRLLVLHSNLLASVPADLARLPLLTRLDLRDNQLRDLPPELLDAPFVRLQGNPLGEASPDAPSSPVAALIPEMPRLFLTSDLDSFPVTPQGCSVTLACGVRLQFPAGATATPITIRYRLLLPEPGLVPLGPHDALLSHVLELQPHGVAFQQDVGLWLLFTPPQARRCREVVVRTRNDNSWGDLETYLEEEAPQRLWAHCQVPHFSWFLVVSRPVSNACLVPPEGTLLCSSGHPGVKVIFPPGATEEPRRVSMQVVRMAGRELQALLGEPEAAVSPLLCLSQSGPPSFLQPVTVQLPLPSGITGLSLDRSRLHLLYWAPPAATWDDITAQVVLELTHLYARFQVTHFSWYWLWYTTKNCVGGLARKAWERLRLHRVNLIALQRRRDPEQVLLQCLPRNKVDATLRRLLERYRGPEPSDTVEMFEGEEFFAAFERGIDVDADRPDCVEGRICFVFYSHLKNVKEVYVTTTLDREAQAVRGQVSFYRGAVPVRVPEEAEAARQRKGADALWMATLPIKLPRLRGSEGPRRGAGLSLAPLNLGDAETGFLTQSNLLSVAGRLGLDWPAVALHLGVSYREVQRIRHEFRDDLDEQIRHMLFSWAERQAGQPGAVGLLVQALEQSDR

[2] = molecular target: T2, C-terminally FLAG-tagged WT PIDD1 (p53-Induced Death Domain protein 1) (human) (UniProt Q9HB75)
T2 sequence: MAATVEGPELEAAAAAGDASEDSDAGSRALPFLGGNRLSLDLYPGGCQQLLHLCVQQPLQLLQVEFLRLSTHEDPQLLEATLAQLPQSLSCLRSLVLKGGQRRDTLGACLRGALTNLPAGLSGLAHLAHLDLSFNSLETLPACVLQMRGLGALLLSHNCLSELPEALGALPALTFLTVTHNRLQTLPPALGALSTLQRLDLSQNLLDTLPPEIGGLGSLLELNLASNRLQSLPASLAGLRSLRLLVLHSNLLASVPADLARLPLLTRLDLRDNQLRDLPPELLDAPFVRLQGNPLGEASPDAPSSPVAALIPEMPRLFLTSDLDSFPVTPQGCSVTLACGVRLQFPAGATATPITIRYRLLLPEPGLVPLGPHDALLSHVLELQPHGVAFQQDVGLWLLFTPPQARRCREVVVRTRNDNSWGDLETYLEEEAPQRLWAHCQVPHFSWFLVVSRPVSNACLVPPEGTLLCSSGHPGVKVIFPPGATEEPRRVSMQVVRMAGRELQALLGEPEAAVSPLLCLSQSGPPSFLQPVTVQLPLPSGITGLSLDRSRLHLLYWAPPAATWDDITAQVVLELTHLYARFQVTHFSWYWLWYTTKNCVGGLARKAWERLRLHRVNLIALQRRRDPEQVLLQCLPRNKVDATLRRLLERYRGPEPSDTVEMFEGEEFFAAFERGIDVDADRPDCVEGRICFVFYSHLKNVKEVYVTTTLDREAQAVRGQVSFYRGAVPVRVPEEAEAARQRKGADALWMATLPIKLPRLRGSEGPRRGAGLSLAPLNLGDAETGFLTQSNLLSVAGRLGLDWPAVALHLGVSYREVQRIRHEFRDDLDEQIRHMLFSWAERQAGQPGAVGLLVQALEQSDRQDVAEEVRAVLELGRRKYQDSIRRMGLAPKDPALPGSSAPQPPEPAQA

[3] = molecular target: T3, C-terminally FLAG-tagged PIDD1 G876S (human) (UniProt Q9HB75)
T3 sequence: T2 sequence with G876S

Q: Which binding [1] does the source give for “endogenous CRADD (caspase and RIP adaptor with death domain) (from UniProt P78560 1-199)” here?
A: The binding was “no binding”.

Q: What about the binding [2] of the same substance?
A: Its binding is “binds”.

Q: And the binding [3]?
A: Its binding is “binds”.
